PubChem BioAssay AID1224830, NIAID, 2016
Shown is an unselected part of about 18,000 reagents. About 2,900 of all reagents (16%) were called active. 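Calls are made per well; low scores hint the gene aids the LPS response, high scores that it dampens it.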 Repeated entries: four replicate wells of each siRNA pool.

Test: 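Genes whose knock-down alters the TNF-alpha reporter response to LPS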 (primary screen)
Cells: human THP-1 monocytic leukaemia cells, TNF dual-luciferase reporter clone, PMA-differentiated to macrophage-like cells
Reagents: siRNA pool against human genes, 50 nM
Time to read-out: LPS for 4 h, given about 3 days after siRNA transfection
Treatment: bacterial LPS (TLR4 ligand), 10 ng/ml
Measurement: 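Ratio of firefly to renilla light, scaled to the plate median and expressed as a robust z-score per replicate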
Direction: TNF reporter robust z-score: higher = stronger TNF reporter response to LPS
Rule for the call: 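Each well counts as active if its z-score is over 2.8 or under -1.5; controls are left without a call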

gene | TNF reporter robust z-score | outcome
DDOST | 0.96 | inactive
DDOST | 1.24 | inactive
DDOST | -0.56 | inactive
DDOST | -0.98 | inactive
UCK1 | 0.26 | inactive
UCK1 | 1.71 | inactive
UCK1 | 0.03 | inactive
UCK1 | -0.69 | inactive
NNAT | 0.54 | inactive
NNAT | 0.34 | inactive
NNAT | 0.95 | inactive
NNAT | 0.96 | inactive
SF3B4 | 0.59 | inactive
SF3B4 | 0.91 | inactive
SF3B4 | 0.36 | inactive
SF3B4 | -0.03 | inactive
R3HDM1 | -0.76 | inactive
R3HDM1 | -1.72 | active
R3HDM1 | -1.92 | active
R3HDM1 | -1.84 | active
IFT140 | -0.54 | inactive
IFT140 | -0.52 | inactive
IFT140 | -0.92 | inactive
IFT140 | 0.6 | inactive
LAMB3 | -0.21 | inactive
LAMB3 | -0.01 | inactive
LAMB3 | -0.52 | inactive
LAMB3 | 0.2 | inactive
VPS72 | -0.68 | inactive
VPS72 | 0.42 | inactive
VPS72 | 0.15 | inactive
VPS72 | 0.55 | inactive
NUP214 | -0.42 | inactive
NUP214 | 0.92 | inactive
NUP214 | 1.32 | inactive
NUP214 | 0.29 | inactive
ALDOA | -1.34 | inactive
ALDOA | -1.62 | active
ALDOA | -1.86 | active
ALDOA | -1.79 | active
CASP14 | 0.98 | inactive
CASP14 | 0.5 | inactive
CASP14 | 0.81 | inactive
CASP14 | -0.39 | inactive
SLC9C1 | -0.54 | inactive
SLC9C1 | -1.21 | inactive
SLC9C1 | -0.29 | inactive
SLC9C1 | -0.04 | inactive
GJB7 | 0.06 | inactive
GJB7 | 1.18 | inactive
GJB7 | 0.54 | inactive
GJB7 | 0.13 | inactive
ALOX12B | 0.07 | inactive
ALOX12B | 0.03 | inactive
ALOX12B | 0.63 | inactive
ALOX12B | 0.61 | inactive
LRRC4C | -1.1 | inactive
LRRC4C | -0.55 | inactive
LRRC4C | -0.47 | inactive
LRRC4C | 0.07 | inactive
FAR2 | -0.92 | inactive
FAR2 | -0.85 | inactive
FAR2 | -0.64 | inactive
FAR2 | -0.15 | inactive
OR10J3 | -0.09 | inactive
OR10J3 | 0.56 | inactive
OR10J3 | -0.32 | inactive
OR10J3 | 0.19 | inactive
TEX44 | 0.52 | inactive
TEX44 | 0.32 | inactive
TEX44 | 0.39 | inactive
TEX44 | 1.25 | inactive
TSEN54 | 0.01 | inactive
TSEN54 | -0.23 | inactive
TSEN54 | -0.57 | inactive
TSEN54 | -1.01 | inactive
SYNJ2BP | 4.02 | active
SYNJ2BP | 2.54 | inactive
SYNJ2BP | 4.12 | active
SYNJ2BP | 2.96 | active
PDXDC1 | -1.63 | active
PDXDC1 | -1.12 | inactive
PDXDC1 | -1.31 | inactive
PDXDC1 | -1.05 | inactive
RPS12 | 0.99 | inactive
RPS12 | 1.42 | inactive
RPS12 | 2.07 | inactive
RPS12 | 0.88 | inactive
SFT2D2 | 2.43 | inactive
SFT2D2 | 3.17 | active
SFT2D2 | 2.58 | inactive
SFT2D2 | 1.71 | inactive
OR4D10 | 2.14 | inactive
OR4D10 | 2.71 | inactive
OR4D10 | -0.09 | inactive
OR4D10 | -0.75 | inactive
LYSMD3 | -1.93 | active
LYSMD3 | -1.88 | active
LYSMD3 | -2.03 | active
LYSMD3 | -1.81 | active
POLN | -0.53 | inactive
POLN | -0.22 | inactive
POLN | -0.16 | inactive
POLN | 0.37 | inactive
CYBB | -0.49 | inactive
CYBB | -0.84 | inactive
CYBB | -0.91 | inactive
CYBB | -0.3 | inactive
RPL23 | -2.03 | active
RPL23 | -1.22 | inactive
RPL23 | -1.53 | active
RPL23 | -1.15 | inactive
CNPY2 | -0.4 | inactive
CNPY2 | 0.67 | inactive
CNPY2 | -0.31 | inactive
CNPY2 | -0.25 | inactive
LINGO2 | 1.19 | inactive
LINGO2 | -0.32 | inactive
LINGO2 | 1.38 | inactive
LINGO2 | 0.47 | inactive
TMEM179 | -0.69 | inactive
TMEM179 | 0.3 | inactive
TMEM179 | 1.29 | inactive
ANKRD9 | -0.5 | inactive
ANKRD9 | -0.12 | inactive
ANKRD9 | -1.08 | inactive
ANKRD9 | -1.26 | inactive
CEMP1 | 2.01 | inactive
CEMP1 | 2.26 | inactive
CEMP1 | 0.16 | inactive
CEMP1 | 1.82 | inactive
CAPN2 | -1.4 | inactive
CAPN2 | -1.1 | inactive
CAPN2 | -1.56 | active
CAPN2 | 0.17 | inactive
AQP7 | -0.34 | inactive
AQP7 | -0.26 | inactive
AQP7 | 0.03 | inactive
AQP7 | -0.44 | inactive
BLNK | 0.79 | inactive
BLNK | 0.54 | inactive
BLNK | -0.21 | inactive
BLNK | 1.91 | inactive

Hits (from the list above):
gene | TNF reporter robust z-score | outcome
R3HDM1 | -1.72 | active
R3HDM1 | -1.92 | active
R3HDM1 | -1.84 | active
ALDOA | -1.62 | active
ALDOA | -1.86 | active
ALDOA | -1.79 | active
SYNJ2BP | 4.02 | active
SYNJ2BP | 4.12 | active
SYNJ2BP | 2.96 | active
PDXDC1 | -1.63 | active
SFT2D2 | 3.17 | active
LYSMD3 | -1.93 | active
LYSMD3 | -1.88 | active
LYSMD3 | -2.03 | active
LYSMD3 | -1.81 | active
RPL23 | -2.03 | active
RPL23 | -1.53 | active
CAPN2 | -1.56 | active
